Data source: PubChem BioAssay AID686938 (Drosophila RNAi Screening Center, 2013)
The screen tested about 23,000 reagents; this is a random part of those with a known target gene and a result. Of all reagents, 75 (0.33%) are marked active. 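Raw plate signals without normalisation; calls rest on plate z-scores that were not deposited; ratio present for only 364 wells.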 Unmarked entries are inactive. Reagents against one gene are numbered here. A plus sign joins genes that one reagent is predicted to hit. Reagent sequences are not shown. Not given: the dose of the treatment.

Purpose: 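Looking for CRAC channel components and the factors controlling them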 (primary screen)
Cells: Drosophila S2R+ cells
Reagents: long dsRNA against Drosophila genes, about 0.25 µg dsRNA per well, roughly 10,000 cells
Timing: 5 days of knock-down before the calcium assay
Conditions: thapsigargin (SERCA pump blocker) to empty calcium stores; entry signal taken 4 min after adding it
Read-out: 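Per-well fluo-4 fluorescence in two replicates, unnormalised, measured in resting cells and 4 min after store depletion by the SERCA blocker thapsigargin; ratio of the two present in few wells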
Reading the numbers: calcium entry signal: higher = stronger calcium signal after store depletion; entry to resting ratio: higher = more calcium entry relative to resting level; resting calcium signal: higher = higher resting calcium signal
Active means: 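Hit if the duplicate-averaged plate z-score for entry over resting signal is under −3; wells with weak total dye signal (Fmax z < −2) or more than 5 off-targets removed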
Meaning of the calls: active = strongly reduced calcium entry; inactive = no strong reduction

gene	reagent no.	calcium entry signal, replicate 1 (fluorescence units)	calcium entry signal, replicate 2 (fluorescence units)	entry to resting ratio	resting calcium signal, replicate 1 (fluorescence units)	resting calcium signal, replicate 2 (fluorescence units)
Rhp (GeneID 32531)	1	3.65e7	3.18e7		1.99e7	1.41e7
CG42372 + CG30100	1	1.52e7	5.05e7		7.87e6	2.96e7
CR31700 (GeneID 8673969)	1	2.86e7	5.61e7		1.38e7	1.99e7
rdx (GeneID 41704)	1	4.17e7	6.59e7		2.24e7	6.34e7
rdx (GeneID 41704)	2	3.67e7	5.45e7		1.95e7	5.68e7
rdx (GeneID 41704)	3	3.44e7	3.14e7		1.64e7	1.44e7
E(spl)m6-BFM (GeneID 43159)	1	3.34e7	5.35e7		1.78e7	2.29e7
CG10226 (GeneID 38725)	1	4.19e7	3.35e7		2.65e7	1.55e7
RpL14 (GeneID 38983)	1	1.10e7	1.08e7		8.38e6	7.50e6
DIP-zeta (GeneID 34231)	1	3.03e7	4.97e7		1.53e7	2.13e7
DIP-zeta (GeneID 34231)	2	2.95e7	2.12e7		1.52e7	1.13e7
DIP-zeta (GeneID 34231)	3	2.36e7	4.10e7		1.31e7	1.76e7
w (GeneID 31271)	1	3.91e7	5.00e7		2.09e7	2.18e7
w (GeneID 31271)	2	3.29e7	5.11e7	1.9	1.74e7	2.07e7
Neb-cGP (GeneID 50417)	1	2.67e7	4.61e7		1.39e7	2.24e7
Glt (GeneID 34193)	1	4.75e7			2.17e7	
betaTry (GeneID 47901)	1	2.65e7	3.87e7		1.38e7	1.94e7
betaTry (GeneID 47901)	2	3.57e7	5.37e7		1.78e7	2.66e7
Myt1 (GeneID 38649)	1	3.46e7	4.24e7		1.51e7	1.86e7
gdl-ORF39 + gdl	1	3.13e7	4.81e7		1.63e7	1.73e7
dpr16 (GeneID 40619)	1	4.38e7	3.06e7		1.97e7	1.50e7
dpr16 (GeneID 40619)	2	5.78e7	2.28e7		2.65e7	1.23e7
CG13284 (GeneID 35021)	1	3.67e7	2.32e7		1.64e7	1.13e7
CG5194 (GeneID 39037)	1	4.22e7	2.84e7		2.90e7	1.33e7
gammaCOP (GeneID 43717)	1	1.47e7	1.10e7	1.5	1.01e7	8.03e6
RNaseZ (GeneID 36086)	1	4.98e7	4.18e7		2.04e7	1.86e7
BG642163 (GeneID 4379888)	1	2.94e7	2.87e7		1.45e7	1.41e7
BG642163 (GeneID 4379888)	2	2.92e7	2.83e7		1.38e7	1.38e7
CG6296 (GeneID 43246)	1	3.00e7	3.57e7		1.38e7	1.69e7
rpr (GeneID 40015)	1	2.89e7	5.14e7		1.58e7	1.96e7
Itgbn (GeneID 35368)	1	3.74e7	4.43e7		1.63e7	1.76e7
CG14106 (GeneID 39506)	1	3.27e7	3.66e7		1.84e7	1.70e7
CG5676 (GeneID 34368)	1	2.93e7	3.67e7		1.39e7	1.55e7
CG14367 (GeneID 41676)	1	2.95e7	4.67e7		1.47e7	6.02e7
mora (GeneID 42874)	1	4.60e7	5.02e7		2.46e7	2.04e7
CG33332 (GeneID 2768669)	1	3.29e7	4.25e7		1.52e7	6.88e7
Ten-a (GeneID 32183)	1	4.32e7	3.01e7		2.02e7	1.54e7
Ten-a (GeneID 32183)	2	2.84e7	3.58e7		1.70e7	2.31e7
Ten-a (GeneID 32183)	3	3.95e7	4.87e7		1.87e7	2.39e7
Ten-a (GeneID 32183)	4	3.68e7	3.94e7		1.72e7	1.90e7
Ten-a (GeneID 32183)	5	3.74e7	3.33e7		1.84e7	1.65e7
Ten-a (GeneID 32183)	6	3.42e7	3.46e7		1.68e7	1.71e7
Ten-a (GeneID 32183)	7	3.05e7	4.07e7		1.56e7	2.08e7
Ten-a (GeneID 32183)	8	2.46e7	2.44e7		1.40e7	1.19e7
Ten-a (GeneID 32183)	9	3.74e7	3.44e7		1.60e7	1.47e7
CG32037 (GeneID 326183)	1	2.52e7	3.81e7		1.30e7	1.70e7
CG3526 (GeneID 31277)	1	5.45e7	4.58e7		2.61e7	1.98e7
CG3526 (GeneID 31277)	2	6.93e7	5.84e7	2.1	3.27e7	2.57e7
Exn (GeneID 39900)	1	2.52e7	3.61e7		1.31e7	2.67e7
Exn (GeneID 39900)	2	3.14e7	4.99e7		1.66e7	1.95e7
Pgant3 (GeneID 35627)	1	4.18e7			2.16e7	
CG34348 (GeneID 32072)	1	3.88e7	3.61e7		1.73e7	1.67e7
CG34348 (GeneID 32072)	2	3.54e7	3.94e7		1.62e7	1.83e7
CG3703 (GeneID 31045)	1	3.49e7	5.92e7	2.1	1.68e7	2.09e7
CG3703 (GeneID 31045)	2	3.99e7	5.45e7	2	2.00e7	2.08e7
CG3703 (GeneID 31045)	3	3.39e7	5.72e7	2	1.69e7	2.11e7
nis (GeneID 33337)	1	3.83e7			2.11e7	
CG5455 (GeneID 43196)	1	3.17e7	3.22e7		1.40e7	1.44e7

Individual results from above.
w (GeneID 31271) #1, resting calcium signal, replicate 1 (fluorescence units): 2.09e7
CG3526 (GeneID 31277) #1, resting calcium signal, replicate 1 (fluorescence units) = 2.61e7
Result of rdx (GeneID 41704) #2 in “resting calcium signal, replicate 2 (fluorescence units)”: 5.68e7
Result of BG642163 (GeneID 4379888) #1 under “resting calcium signal, replicate 1 (fluorescence units)”: 1.45e7
Under “resting calcium signal, replicate 2 (fluorescence units)”, w (GeneID 31271) #2 is entered as 2.07e7
For “resting calcium signal, replicate 2 (fluorescence units)”, betaTry (GeneID 47901) #2 has 2.66e7
